Results are given in words; binding and its absence hold for the method and conditions named. Binding seen in cells or lysates may run through a third protein. Here binding means that the protein was enriched with, or labelled near, the bait; the list need not be complete.
Target: T1, TurboID-ALN (UniProt Q99M08)
T1 sequence: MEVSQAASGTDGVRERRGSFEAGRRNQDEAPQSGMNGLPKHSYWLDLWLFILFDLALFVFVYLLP
Test: proximity labelling; TurboID on the N terminus of ALN in differentiated beige adipocytes, 50 μM biotin for 30 min, streptavidin beads, TMT-based quantitative proteomics; basal and NE-treated cells

- binding: binds
Substance: SERCA2b (from UniProt O55143-1 1-1044) (enzyme)

— publication PMC12137002
